The source of these data is publication PMC7671996.

Chains of the proteins cited; added tags and fusions are not shown. Lines headed by an entry give the natural chain unless they say otherwise; changes in a name come on top. Residues count along the entry.
UniProt Q96SW2: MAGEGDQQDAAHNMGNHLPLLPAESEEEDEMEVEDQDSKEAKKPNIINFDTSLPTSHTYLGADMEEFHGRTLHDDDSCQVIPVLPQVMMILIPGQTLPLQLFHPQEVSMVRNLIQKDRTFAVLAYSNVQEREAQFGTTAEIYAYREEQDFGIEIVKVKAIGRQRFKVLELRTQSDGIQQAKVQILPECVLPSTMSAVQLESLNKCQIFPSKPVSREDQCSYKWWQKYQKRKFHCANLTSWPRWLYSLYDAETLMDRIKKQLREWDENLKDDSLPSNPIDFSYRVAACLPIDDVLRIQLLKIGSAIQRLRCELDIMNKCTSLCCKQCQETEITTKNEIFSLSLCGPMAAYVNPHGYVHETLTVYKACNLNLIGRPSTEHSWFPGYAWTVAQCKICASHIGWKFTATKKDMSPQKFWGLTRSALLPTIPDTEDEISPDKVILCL
CRBN truncated mutant (81-317, Lon N-terminal): residues 81-317 of Q96SW2
UniProt Q16531: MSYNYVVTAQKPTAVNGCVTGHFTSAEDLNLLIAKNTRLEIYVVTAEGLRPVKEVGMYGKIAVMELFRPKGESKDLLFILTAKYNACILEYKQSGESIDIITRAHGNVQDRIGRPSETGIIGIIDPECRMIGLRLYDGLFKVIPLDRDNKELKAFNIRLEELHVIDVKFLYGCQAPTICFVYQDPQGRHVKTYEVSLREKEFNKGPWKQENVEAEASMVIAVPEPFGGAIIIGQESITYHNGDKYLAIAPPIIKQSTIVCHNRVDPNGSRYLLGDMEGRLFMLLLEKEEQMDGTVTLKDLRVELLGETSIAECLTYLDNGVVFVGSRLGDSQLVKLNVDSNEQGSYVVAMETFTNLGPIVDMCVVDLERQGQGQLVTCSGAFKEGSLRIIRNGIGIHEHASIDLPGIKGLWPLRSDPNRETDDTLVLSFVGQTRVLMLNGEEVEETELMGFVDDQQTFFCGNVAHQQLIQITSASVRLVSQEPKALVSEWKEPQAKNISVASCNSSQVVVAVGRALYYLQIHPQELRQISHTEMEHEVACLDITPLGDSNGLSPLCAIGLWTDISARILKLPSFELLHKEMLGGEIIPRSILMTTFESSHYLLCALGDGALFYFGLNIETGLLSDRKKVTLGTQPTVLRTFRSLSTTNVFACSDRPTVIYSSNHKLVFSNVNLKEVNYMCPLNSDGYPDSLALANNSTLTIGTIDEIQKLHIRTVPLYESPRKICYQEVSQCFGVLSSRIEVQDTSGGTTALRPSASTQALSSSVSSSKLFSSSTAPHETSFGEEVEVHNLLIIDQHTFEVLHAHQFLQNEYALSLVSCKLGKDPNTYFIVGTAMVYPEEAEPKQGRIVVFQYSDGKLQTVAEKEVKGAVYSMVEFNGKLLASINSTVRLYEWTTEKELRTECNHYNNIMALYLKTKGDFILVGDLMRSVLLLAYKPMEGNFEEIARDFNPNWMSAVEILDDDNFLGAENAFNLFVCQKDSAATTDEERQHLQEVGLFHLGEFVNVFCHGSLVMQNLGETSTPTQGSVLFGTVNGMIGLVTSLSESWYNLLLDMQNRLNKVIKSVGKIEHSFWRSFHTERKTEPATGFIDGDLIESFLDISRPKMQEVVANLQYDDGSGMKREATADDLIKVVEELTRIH
UniProt Q13619: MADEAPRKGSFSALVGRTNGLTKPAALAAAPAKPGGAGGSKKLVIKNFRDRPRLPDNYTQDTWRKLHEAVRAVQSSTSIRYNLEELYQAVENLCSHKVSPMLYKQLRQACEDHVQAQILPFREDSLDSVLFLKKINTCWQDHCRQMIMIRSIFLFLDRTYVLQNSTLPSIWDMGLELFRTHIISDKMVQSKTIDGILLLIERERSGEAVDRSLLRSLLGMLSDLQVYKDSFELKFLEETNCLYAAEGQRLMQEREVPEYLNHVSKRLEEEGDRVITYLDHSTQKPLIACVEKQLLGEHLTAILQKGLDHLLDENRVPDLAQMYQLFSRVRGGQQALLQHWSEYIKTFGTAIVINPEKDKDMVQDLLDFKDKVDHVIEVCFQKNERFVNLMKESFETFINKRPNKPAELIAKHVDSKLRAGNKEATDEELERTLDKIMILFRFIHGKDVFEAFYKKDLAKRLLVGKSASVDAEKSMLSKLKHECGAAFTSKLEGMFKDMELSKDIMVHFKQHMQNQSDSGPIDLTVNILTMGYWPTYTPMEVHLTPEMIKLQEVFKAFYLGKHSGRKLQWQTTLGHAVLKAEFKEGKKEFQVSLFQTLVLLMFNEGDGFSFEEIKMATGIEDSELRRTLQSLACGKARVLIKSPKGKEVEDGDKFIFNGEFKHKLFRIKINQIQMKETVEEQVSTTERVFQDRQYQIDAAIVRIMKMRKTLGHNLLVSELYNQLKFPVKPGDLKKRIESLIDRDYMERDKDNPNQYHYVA
UniProt P26367: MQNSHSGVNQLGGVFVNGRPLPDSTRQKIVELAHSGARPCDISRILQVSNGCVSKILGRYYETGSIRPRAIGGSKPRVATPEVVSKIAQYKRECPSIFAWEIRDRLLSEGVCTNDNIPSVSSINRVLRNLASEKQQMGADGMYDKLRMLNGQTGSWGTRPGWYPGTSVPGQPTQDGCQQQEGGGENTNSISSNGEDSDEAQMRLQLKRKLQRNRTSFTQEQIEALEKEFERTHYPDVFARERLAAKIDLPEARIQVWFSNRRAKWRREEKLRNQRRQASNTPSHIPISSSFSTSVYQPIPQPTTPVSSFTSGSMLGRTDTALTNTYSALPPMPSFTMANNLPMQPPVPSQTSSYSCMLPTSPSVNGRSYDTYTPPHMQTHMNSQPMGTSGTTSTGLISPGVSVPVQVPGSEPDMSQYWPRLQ

These are yes or no findings as the source states them, for the method shown. Binding seen in cells or lysates may run through a third protein. Some entries that bind do so weakly or less than the wild type. For some assays here: Sequences can lack the tags named with a protein.

The target in one experiment is Myc-CRBN wild type (UniProt Q96SW2). Briefly: co-IP; HEK293T cells co-transfected with EGFL6 WT or truncated mutants and Myc-CRBN WT, or CRBN WT or truncated mutants and Flag-EGFL6 WT; reciprocal co-IP; control vector.
The target of experiment [1] is Cereblon (CRBN), endogenous (human (endogenous in HUVEC and HEK293T)) (UniProt Q96SW2). Description: co-IP; HUVEC treated with 50 μM thalidomide or not; co-IP of EGFL6 and CRBN.
Experiment [2] addresses DDB1 (human (endogenous in HEK293T)) (UniProt Q16531). Briefly: co-IP; HEK293T cells; endogenous EGFL6 and CRBN-DDB1-Cullin 4A complex.
In experiment [3] the target is Cereblon (CRBN), endogenous (human (endogenous in HUVEC and HEK293T)) (UniProt Q96SW2). The experiment is described as above.
The target of experiment [4] is Cullin 4A (human (endogenous in HEK293T)) (UniProt Q13619). The description is as above.
Experiment [5] concerns the target Paired box 6 (PAX6), endogenous (human (endogenous in HUVEC)) (UniProt P26367). Briefly: co-IP; reciprocal co-IP of endogenous proteins from HUVEC lysate with anti-EGFL6 and anti-PAX6 antibody; IgG as control.
Experiment [6] has as its target CRBN truncated mutant (81-317, Lon N-terminal) (UniProt Q96SW2). Briefly: co-IP; HEK293T cells co-transfected with EGFL6 WT or truncated mutants and Myc-CRBN WT, or CRBN WT or truncated mutants and Flag-EGFL6 WT; reciprocal co-IP; control vector.

B1: EGFL6 truncated mutant (65-259) (domain or fragment, UniProt Q8IUX8 65-259)
chain: CEPGCKFGECVGPNKCRCFPGYTGKTCSQDVNECGMKPRPCQHRCVNTHGSYKCFCLSGHMLMPDATCVNSRTCAMINCQYSCEDTEEGPQCLCPSSGLRLAPNGRDCLDIDECASGKVICPYNRRCVNTFGSYYCKCHIGFELQYISGRYDCIDINECTMDSHTCSHHANCFNTQGSFKCKCKQGYKGNGLRCS
On to B1, for which the binding entry in the experiment with Myc-CRBN wild type is “binds”.

B2: EGF like domain multiple 6 (EGFL6), endogenous (protein, UniProt Q8IUX8 22-553)
chain: NAASARHHGLLASARQPGVCHYGTKLACCYGWRRNSKGVCEATCEPGCKFGECVGPNKCRCFPGYTGKTCSQDVNECGMKPRPCQHRCVNTHGSYKCFCLSGHMLMPDATCVNSRTCAMINCQYSCEDTEEGPQCLCPSSGLRLAPNGRDCLDIDECASGKVICPYNRRCVNTFGSYYCKCHIGFELQYISGRYDCIDINECTMDSHTCSHHANCFNTQGSFKCKCKQGYKGNGLRCSAIPENSVKEVLRAPGTIKDRIKKLLAHKNSMKKKAKIKNVTPEPTRTPTPKVNLQPFNYEEIVSRGGNSHGGKKGNEEKMKEGLEDEKREEKALKNDIEERSLRGDVFFPKVNEAGEFGLILVQRKALTSKLEHKDLNISVDCSFNHGICDWKQDREDDFDWNPADRDNAIGFYMAVPALAGHKKDIGRLKLLLPDLQPQSNFCLLFDYRLAGDKVGKLRVFVKNSNNALAWEKTTSEDEKWKTGKIQLYQGTDATKSIIFEAERGKGKTGEIAVDGVLLVSGLCPDSLLSVDD
With B2, the binding entry in experiment [1], in experiment [2], in experiment [3], in experiment [4] and in experiment [5] was “binds” throughout.

B3: Flag-EGFL6 wild type (protein, UniProt Q8IUX8 22-553)
chain: NAASARHHGLLASARQPGVCHYGTKLACCYGWRRNSKGVCEATCEPGCKFGECVGPNKCRCFPGYTGKTCSQDVNECGMKPRPCQHRCVNTHGSYKCFCLSGHMLMPDATCVNSRTCAMINCQYSCEDTEEGPQCLCPSSGLRLAPNGRDCLDIDECASGKVICPYNRRCVNTFGSYYCKCHIGFELQYISGRYDCIDINECTMDSHTCSHHANCFNTQGSFKCKCKQGYKGNGLRCSAIPENSVKEVLRAPGTIKDRIKKLLAHKNSMKKKAKIKNVTPEPTRTPTPKVNLQPFNYEEIVSRGGNSHGGKKGNEEKMKEGLEDEKREEKALKNDIEERSLRGDVFFPKVNEAGEFGLILVQRKALTSKLEHKDLNISVDCSFNHGICDWKQDREDDFDWNPADRDNAIGFYMAVPALAGHKKDIGRLKLLLPDLQPQSNFCLLFDYRLAGDKVGKLRVFVKNSNNALAWEKTTSEDEKWKTGKIQLYQGTDATKSIIFEAERGKGKTGEIAVDGVLLVSGLCPDSLLSVDD
On to B3, for which the binding result (with Myc-CRBN wild type; in experiment [6]) was “binds” each time.
